Data as given in PMC6322727.
These are yes or no findings as the source states them, for the method shown. Binding seen in cells or lysates may run through a third protein. These calls come from enrichment with a bait or labelling near it, and not all partners need be listed. Sequences can lack the tags named with a protein.

Protein sequences, listed by entry. Tags and fused reporters are not part of them. Residues count along the entry.
UniProt P25685: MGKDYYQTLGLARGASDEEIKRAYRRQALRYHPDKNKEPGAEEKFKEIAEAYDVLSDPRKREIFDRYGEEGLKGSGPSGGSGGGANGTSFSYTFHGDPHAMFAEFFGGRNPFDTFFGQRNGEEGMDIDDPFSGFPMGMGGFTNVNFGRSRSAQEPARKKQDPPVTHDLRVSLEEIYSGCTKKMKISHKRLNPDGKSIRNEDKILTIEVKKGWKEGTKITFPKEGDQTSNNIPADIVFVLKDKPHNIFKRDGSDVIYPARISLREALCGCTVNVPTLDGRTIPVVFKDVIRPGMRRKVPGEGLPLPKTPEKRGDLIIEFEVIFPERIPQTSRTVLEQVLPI
UniProt P0DMV8: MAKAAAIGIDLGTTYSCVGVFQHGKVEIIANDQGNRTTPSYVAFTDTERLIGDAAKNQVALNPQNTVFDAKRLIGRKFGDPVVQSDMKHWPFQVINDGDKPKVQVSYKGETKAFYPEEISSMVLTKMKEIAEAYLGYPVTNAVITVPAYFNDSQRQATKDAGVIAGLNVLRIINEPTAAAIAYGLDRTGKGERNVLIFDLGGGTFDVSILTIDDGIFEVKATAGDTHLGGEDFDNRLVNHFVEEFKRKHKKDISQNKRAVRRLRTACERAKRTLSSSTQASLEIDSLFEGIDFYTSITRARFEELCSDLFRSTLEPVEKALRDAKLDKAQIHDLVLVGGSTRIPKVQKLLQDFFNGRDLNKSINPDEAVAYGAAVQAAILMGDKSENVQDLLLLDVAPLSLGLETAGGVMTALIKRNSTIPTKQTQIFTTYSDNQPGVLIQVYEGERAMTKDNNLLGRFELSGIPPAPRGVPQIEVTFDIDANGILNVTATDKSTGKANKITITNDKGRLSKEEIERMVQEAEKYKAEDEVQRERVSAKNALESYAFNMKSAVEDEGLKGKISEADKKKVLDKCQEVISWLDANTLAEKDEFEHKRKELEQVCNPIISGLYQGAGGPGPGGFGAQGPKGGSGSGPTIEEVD
UniProt Q92598: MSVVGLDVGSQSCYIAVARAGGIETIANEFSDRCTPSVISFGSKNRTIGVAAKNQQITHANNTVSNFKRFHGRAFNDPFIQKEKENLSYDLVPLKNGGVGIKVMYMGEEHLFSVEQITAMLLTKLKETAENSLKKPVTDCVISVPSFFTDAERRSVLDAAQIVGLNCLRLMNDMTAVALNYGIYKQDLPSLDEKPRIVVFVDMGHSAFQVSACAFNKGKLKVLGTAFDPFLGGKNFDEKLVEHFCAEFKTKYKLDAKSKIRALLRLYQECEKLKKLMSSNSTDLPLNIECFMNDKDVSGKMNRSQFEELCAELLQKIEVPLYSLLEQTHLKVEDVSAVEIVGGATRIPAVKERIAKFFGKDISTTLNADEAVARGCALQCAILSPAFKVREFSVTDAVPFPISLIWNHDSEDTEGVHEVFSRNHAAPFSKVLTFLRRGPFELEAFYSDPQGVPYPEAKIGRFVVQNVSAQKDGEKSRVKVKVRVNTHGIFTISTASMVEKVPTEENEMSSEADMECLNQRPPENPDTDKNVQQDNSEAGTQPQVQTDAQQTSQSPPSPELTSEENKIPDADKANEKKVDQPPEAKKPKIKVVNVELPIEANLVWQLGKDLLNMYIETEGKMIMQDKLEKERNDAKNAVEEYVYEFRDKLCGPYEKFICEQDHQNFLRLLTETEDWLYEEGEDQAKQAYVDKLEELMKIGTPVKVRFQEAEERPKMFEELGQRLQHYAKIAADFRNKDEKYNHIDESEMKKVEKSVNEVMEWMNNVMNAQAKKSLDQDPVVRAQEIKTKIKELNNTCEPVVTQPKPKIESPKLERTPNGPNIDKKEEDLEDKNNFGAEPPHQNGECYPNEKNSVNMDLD
UniProt P27824, residues 21-592: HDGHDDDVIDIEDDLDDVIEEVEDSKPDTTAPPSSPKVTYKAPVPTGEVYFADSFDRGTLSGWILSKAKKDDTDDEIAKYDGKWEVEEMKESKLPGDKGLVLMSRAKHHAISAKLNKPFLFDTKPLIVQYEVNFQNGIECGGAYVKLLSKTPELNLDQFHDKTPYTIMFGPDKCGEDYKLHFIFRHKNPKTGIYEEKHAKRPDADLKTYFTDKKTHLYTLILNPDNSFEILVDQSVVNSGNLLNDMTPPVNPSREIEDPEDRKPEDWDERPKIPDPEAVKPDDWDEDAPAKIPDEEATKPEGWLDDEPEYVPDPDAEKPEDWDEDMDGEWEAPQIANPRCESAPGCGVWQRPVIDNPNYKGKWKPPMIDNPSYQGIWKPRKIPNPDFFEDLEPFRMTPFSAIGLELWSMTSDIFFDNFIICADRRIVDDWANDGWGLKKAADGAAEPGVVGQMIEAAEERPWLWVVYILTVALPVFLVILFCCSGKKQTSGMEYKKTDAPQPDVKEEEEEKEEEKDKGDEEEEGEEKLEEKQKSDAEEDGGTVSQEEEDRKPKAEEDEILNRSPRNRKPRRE

What follows are substances tested against T1, BioId/DGAT2 fusion protein (Myc-BirA* fused to murine diacylglycerol acyltransferase-2) (murine) (UniProt Q9DCV3) (assay: proximity labelling; BioId: BioId/DGAT2 expressed in HEK-293T, 50 uM biotin and 0.5 mM oleate for 12 h; biotinylated proteins captured on magnetic streptavidin beads, SDS-PAGE, bands excised, LC-MS/MS; hits not found in control samples).
T1 sequence: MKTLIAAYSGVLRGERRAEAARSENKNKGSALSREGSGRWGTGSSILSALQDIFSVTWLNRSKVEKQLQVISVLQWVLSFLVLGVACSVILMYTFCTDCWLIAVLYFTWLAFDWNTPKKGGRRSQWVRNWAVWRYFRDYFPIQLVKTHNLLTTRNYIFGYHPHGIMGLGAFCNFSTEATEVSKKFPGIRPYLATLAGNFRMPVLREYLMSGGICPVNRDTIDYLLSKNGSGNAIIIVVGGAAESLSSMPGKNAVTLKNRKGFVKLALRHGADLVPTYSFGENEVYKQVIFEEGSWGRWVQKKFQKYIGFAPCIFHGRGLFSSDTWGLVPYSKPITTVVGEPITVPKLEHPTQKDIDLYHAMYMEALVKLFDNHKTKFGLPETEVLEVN

| binding | Substance |
| --- | --- |
| binds | DNAJB1 (from UniProt P25685 1-340) |
| binds | HSPA1A (from UniProt P0DMV8 1-641) |
| binds | HSPH1 (from UniProt Q92598 1-858) |
| binds | VCP (from UniProt P55072 1-806) |
| binds | calnexin (from UniProt P27824 21-592) |
| binds | calreticulin (from UniProt P27797 18-417) |

The substances below were run against T2, FLAG-DGAT2 (diacylglycerol acyltransferase-2) (murine (said of the DGAT2 in BioId/DGAT2)) (UniProt Q9DCV3) (assay: affinity purification with mass spectrometry; anti-FLAG agarose immunoprecipitate of HEK-293T cells expressing FL-DGAT2, solubilised with 0.5% CHAPS in PBS, 4 C, eluted with FLAG peptide; mass spectrometry; control: anti-FLAG immunoprecipitate of cells expressing Myc-DGAT2).
T2 sequence: T1 sequence

| binding | Substance |
| --- | --- |
| binds | calnexin (from UniProt P27824 21-592) |
